Paper PMC10051276

Protein sequences, listed by entry. Tags and fused reporters are not part of them. Lines headed by an entry give the natural chain unless they say otherwise; changes in a name come on top.
UniProt Q584U7: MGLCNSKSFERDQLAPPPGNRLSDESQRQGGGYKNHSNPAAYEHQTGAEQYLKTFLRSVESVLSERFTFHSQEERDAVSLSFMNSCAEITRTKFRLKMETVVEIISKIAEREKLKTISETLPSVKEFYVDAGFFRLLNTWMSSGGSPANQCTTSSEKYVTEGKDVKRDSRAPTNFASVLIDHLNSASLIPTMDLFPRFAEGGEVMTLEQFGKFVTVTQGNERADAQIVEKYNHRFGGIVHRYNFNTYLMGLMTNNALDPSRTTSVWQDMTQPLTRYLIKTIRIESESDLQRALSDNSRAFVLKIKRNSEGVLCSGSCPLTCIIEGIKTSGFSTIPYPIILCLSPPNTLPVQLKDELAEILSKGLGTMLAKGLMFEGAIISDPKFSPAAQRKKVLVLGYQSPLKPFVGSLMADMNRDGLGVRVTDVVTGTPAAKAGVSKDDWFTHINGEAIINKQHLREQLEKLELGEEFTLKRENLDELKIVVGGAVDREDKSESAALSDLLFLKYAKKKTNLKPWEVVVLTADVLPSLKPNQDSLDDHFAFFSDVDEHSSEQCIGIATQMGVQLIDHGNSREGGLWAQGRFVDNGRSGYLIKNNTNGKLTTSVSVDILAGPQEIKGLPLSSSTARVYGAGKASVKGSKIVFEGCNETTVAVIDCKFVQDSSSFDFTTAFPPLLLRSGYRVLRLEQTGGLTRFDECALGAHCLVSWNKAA

Biological target: TbPI-PLC1 endogenously tagged with hemagglutinin (HA) (T. brucei) (UniProt Q385H1)
Assay: co-IP; T. brucei PCF line with TbPI-PLC1 endogenously tagged with HA; TbPI-PLC-like untagged; most TbPI-PLC-like in the flow through; found in five independent experiments

TbPI-PLC-like (from UniProt Q584U7)
binding: binds weakly

Results are given in words; binding and its absence hold for the method and conditions named. Binding seen in cells or lysates may run through a third protein. Binding calls can cover weak binding; strength is not graded here.
